Source: patent publication US10434085B2, “Non-aromatic difluoro analogues of resorcylic acid lactones” (The University of North Carolina at Greensboro, priority 2015, dated 2019)
At least one structure is not confirmed: it was looked up by name or label, or the drawing left a doubt.

Assay: Chemical stability under acidic and basic reaction conditions
Format: physicochemical
Settings: results in isomerization, elimination or intramolecular cyclization products

SMILES: COc1cc(O)c2c(c1)/C=C/C[C@H](O)[C@H](O)C(=O)/C=C\C[C@H](C)OC2=O [(5Z)-7-oxozeaenol]
- sensitivity to acidic and basic conditions: sensitive to both acidic and basic conditions
